Values of other authors in PMC6161897, “The novel NADPH oxidase 4 selective inhibitor GLX7013114 counteracts human islet cell death in vitro” (PLoS ONE, 2018).

Details: cited from earlier work

| Compound | Endogenous redox activity (DPPH) |
| --- | --- |
| CCOC(=O)c1c(NC(=O)CN2CCN(C(=O)c3ccco3)CC2)sc2c1CCC2 [GLX351322] | No |
| O=[N+]([O-])c1cccc(C2Nc3ccc([N+](=O)[O-])cc3C3C=CCC32)c1 (centres unmarked) [Phox-I2] | No |
